# For at least one compound, name, drawing or mass did not settle the structure.
# Test system: BAM-transduced fibroblasts
# Test: iN reprogramming of BAM-transduced fibroblasts with chemical/siRNA treatment and microfluidic squeezing (Tuj1 staining, day 7)
# Assay type: cell-based, mouse
# Protocol: Fibroblasts were isolated from ear tissues of adult (1 month-old) C57BL/6 mice, Tau-EGFP reporter mice (Jackson Laboratory, 004779) and R26-M2rtTA;Col1a1-tetO-H2B-GFP compound mutant mice (Jackson Laboratory, 016836), and expanded in fibroblast medium: DMEM (Gibco, 11965), 10% fetal bovine serum (FBS; Gibco, 26140079) and 1% penicillin/streptomycin (GIBCO, 15140122). For all experiments, passage-2 cells were used and synchronized upon reaching 80% confluency using DMEM with 1% FBS for 24 hours before the transduction with viruses containing BAM constructs. The following day (day 0) the medium was changed to mouse embryonic fibroblasts (MEF) medium containing doxycycline (2 ng/ml, Sigma) to initiate the expression of the transgenes and thus, reprogramming. […] The reprogramming efficiency was determined as the percentage of iN cells on day 7 relative to the number of the cells initially seeded. […]
# To determine the role of H3K9 methylation in microfluidic device-induced iN reprogramming, BAM-transduced fibroblasts were treated with the H3K9 methyltransferase inhibitor Bix-01294 (Cayman chemical, 13124) or demethylase inhibitor JIB-04 (Cayman chemical, 15338) at the indicated concentrations for 24 hours prior to introduction into the microdevice. […] The iN reprogramming efficiency was determined via Tuj1 staining 7 days after squeezing. […]
smiles,measurement,setting,value
Nc1ncn([C@H]2C[C@H](O)[C@@H](CO)O2)c(=O)n1 [Decitabine],iN reprogramming efficiency,"agent alone without squeezing, vs control, Bix01294 1 μM, JIB-04 100 nM, Decitabine 0.5 μM, 24 hours",slightly enhanced iN reprogramming efficiency
same,nuclear deformation-induced iN reprogramming efficiency,"pre-treatment followed by squeezing in 7-μm microchannels, vs squeezed-only group",further enhanced squeezing-induced iN reprogramming

# Source: US20230381774A1, “MICROFLUDIC LAB-ON-CHIP DEVICE, MATRIX, SMALL MOLECULES AND THREE-DIMENSIONAL SPHEROIDS FOR CELL REPROGRAMMING” (The Regents of the University of California, priority 2022, published 2023)
